Results from the supplement of paper PMC12067093, “Discovery and optimisation of a covalent ligand for TRIM25 and its application to targeted protein ubiquitination” (Chemical Science, 2025).
The other results are listed elsewhere or left out.

Protein sequences, listed by entry. Tags and fused reporters are not part of them. Lines headed by an entry give the natural chain unless they say otherwise; changes in a name come on top.
UniProt Q9NX74: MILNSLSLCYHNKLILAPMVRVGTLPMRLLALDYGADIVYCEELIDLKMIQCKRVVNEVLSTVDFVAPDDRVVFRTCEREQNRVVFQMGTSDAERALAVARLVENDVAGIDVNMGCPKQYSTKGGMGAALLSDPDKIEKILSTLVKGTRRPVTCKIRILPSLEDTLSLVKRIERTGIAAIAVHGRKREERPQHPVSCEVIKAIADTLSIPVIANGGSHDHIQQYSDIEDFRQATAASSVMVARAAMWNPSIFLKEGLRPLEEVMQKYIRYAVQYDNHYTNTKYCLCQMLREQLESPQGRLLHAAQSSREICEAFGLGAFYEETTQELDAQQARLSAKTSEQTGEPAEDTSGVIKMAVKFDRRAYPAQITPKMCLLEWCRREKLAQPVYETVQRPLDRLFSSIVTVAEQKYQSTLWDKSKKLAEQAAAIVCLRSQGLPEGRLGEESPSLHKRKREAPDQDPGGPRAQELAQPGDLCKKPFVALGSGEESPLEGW
UniProt Q96G46: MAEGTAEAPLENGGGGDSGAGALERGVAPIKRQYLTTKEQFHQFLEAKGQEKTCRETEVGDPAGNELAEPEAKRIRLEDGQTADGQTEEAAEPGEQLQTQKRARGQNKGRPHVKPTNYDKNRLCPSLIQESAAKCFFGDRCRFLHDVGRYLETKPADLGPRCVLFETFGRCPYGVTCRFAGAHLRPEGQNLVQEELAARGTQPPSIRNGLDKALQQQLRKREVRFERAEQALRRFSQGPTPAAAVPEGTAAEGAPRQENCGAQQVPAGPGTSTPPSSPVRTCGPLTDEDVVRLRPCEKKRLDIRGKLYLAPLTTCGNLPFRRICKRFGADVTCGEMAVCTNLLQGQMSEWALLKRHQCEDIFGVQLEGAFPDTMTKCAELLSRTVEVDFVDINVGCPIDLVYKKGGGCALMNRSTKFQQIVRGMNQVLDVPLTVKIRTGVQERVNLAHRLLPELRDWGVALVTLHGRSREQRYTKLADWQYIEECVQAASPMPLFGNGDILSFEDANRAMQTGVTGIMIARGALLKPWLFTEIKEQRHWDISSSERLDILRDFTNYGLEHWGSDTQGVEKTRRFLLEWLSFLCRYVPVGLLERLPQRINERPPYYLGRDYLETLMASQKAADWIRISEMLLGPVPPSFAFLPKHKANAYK
UniProt P23919: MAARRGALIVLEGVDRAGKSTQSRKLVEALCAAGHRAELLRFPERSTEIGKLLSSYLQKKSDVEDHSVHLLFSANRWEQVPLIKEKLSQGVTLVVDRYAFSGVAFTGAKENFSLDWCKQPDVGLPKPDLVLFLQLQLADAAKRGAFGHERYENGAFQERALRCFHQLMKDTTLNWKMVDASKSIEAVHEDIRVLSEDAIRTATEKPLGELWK
UniProt Q92608: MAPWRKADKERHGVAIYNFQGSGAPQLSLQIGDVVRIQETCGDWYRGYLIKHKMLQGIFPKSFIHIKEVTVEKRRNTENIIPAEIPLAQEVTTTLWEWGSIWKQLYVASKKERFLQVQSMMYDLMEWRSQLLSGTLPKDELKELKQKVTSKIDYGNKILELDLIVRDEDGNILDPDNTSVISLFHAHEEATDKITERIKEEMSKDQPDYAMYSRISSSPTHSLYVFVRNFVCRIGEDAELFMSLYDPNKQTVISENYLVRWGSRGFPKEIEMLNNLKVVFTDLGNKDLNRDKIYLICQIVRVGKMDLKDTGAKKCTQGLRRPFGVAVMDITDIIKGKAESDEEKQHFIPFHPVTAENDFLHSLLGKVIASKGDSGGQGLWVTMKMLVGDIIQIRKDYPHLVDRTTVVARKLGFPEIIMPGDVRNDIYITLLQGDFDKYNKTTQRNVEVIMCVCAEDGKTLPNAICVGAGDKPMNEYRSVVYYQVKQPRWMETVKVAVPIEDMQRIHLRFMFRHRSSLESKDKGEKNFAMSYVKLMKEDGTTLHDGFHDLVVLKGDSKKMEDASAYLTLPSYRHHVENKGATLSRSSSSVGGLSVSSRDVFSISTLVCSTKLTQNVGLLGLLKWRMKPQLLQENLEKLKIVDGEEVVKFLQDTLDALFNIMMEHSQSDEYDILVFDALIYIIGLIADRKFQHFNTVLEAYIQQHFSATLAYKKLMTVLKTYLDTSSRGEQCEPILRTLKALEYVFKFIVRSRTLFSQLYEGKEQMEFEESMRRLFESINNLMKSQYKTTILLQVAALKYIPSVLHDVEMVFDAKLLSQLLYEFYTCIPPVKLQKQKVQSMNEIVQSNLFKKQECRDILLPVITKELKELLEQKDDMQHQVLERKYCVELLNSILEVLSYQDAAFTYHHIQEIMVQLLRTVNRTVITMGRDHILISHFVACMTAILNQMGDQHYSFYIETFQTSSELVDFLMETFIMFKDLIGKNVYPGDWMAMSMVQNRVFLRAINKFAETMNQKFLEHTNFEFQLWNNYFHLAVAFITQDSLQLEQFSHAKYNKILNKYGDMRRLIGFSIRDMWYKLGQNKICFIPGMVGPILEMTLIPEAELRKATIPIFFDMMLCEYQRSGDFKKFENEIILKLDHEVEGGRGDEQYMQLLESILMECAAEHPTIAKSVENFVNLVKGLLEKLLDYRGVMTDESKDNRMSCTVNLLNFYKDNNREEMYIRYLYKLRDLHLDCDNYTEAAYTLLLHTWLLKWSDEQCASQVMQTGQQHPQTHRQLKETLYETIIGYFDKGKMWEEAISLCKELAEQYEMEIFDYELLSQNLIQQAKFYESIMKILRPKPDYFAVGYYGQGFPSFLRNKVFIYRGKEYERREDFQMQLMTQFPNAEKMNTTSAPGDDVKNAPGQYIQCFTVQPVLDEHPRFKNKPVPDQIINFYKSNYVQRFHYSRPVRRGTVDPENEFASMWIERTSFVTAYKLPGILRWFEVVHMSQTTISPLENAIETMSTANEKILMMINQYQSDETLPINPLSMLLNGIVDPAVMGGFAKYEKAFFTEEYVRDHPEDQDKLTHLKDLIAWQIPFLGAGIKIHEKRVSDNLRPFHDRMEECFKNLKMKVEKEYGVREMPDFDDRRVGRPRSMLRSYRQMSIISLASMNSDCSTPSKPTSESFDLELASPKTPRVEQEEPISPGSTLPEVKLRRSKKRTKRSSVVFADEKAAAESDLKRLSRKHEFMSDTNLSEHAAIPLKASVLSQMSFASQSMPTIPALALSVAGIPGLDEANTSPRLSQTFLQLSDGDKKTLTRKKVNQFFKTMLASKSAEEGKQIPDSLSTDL
UniProt O60496: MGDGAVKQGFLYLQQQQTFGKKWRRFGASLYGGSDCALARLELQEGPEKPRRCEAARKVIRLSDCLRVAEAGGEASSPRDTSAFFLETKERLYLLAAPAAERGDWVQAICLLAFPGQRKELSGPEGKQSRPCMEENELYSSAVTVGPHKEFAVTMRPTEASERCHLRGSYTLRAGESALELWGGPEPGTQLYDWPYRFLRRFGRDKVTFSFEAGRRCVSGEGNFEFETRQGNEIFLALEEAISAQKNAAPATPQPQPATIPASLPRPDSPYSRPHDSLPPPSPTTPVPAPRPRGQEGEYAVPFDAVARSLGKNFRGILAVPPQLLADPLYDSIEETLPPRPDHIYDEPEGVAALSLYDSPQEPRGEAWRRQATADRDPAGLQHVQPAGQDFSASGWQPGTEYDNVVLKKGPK
UniProt P33316: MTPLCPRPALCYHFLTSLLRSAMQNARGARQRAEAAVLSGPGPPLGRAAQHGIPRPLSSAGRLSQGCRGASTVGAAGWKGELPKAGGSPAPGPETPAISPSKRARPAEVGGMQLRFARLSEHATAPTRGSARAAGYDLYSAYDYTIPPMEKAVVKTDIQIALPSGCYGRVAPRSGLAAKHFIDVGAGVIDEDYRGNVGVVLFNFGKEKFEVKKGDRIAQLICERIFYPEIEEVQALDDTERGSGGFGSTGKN
UniProt Q9H410: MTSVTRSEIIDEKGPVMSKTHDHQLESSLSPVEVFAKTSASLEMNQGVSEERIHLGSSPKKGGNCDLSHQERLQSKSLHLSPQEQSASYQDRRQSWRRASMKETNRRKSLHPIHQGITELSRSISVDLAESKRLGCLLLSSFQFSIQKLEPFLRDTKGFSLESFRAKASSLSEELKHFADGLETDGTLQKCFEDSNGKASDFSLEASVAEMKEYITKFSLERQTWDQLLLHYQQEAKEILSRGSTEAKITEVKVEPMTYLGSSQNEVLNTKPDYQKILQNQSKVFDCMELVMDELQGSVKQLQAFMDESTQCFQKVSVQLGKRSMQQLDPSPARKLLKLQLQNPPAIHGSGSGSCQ
UniProt Q9H7D0, whole entry, looked up: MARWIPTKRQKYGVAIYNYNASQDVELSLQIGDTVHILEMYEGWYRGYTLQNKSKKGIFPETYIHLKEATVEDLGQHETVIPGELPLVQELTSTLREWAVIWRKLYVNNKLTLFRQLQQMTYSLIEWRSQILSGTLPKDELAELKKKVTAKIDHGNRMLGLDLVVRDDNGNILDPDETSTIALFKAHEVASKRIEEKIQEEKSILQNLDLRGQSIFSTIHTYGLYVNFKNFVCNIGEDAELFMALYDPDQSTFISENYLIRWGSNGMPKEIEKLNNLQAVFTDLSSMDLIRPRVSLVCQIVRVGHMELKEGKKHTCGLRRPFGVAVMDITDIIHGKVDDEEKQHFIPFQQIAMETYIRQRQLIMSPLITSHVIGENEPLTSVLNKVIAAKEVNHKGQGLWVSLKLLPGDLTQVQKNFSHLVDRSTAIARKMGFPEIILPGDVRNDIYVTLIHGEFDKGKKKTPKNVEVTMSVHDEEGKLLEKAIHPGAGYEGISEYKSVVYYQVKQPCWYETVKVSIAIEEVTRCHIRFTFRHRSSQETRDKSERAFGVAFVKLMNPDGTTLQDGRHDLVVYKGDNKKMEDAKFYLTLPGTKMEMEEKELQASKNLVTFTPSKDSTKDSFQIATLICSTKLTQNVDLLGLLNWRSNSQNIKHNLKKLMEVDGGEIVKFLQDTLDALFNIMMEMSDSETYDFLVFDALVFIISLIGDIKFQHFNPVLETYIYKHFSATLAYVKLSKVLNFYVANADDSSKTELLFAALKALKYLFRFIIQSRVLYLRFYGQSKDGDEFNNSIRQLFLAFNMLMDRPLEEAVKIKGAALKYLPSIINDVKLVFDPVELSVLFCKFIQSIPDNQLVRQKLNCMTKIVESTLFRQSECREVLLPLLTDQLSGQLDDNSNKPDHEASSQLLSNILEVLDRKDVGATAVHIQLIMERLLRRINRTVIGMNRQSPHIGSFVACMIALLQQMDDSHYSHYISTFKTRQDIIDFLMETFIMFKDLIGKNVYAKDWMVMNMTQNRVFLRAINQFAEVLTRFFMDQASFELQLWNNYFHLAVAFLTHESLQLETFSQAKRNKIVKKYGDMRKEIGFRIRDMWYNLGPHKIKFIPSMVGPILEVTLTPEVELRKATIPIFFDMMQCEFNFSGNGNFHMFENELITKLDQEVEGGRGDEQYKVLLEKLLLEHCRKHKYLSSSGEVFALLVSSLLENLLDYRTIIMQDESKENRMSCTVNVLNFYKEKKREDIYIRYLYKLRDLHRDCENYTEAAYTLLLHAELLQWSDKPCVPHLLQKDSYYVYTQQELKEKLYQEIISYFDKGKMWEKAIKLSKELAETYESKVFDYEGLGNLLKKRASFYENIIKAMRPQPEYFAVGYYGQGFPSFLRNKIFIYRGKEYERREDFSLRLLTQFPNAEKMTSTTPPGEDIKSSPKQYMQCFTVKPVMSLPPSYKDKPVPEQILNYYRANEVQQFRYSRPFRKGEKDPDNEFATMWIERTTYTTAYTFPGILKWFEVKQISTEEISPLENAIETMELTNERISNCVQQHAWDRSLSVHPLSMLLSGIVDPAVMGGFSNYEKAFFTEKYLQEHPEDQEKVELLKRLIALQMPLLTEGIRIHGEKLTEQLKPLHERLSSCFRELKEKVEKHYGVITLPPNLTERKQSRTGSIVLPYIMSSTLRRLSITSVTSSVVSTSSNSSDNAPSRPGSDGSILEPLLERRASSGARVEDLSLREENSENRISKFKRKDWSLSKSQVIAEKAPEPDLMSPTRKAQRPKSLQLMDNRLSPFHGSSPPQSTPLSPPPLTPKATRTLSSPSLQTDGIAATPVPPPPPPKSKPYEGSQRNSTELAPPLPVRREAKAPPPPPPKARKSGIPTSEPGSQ
UniProt P60981: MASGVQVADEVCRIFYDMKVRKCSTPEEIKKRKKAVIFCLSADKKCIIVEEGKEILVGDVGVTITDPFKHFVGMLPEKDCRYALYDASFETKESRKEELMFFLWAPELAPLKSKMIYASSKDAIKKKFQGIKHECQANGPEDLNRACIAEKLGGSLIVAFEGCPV
UniProt Q9H2P9: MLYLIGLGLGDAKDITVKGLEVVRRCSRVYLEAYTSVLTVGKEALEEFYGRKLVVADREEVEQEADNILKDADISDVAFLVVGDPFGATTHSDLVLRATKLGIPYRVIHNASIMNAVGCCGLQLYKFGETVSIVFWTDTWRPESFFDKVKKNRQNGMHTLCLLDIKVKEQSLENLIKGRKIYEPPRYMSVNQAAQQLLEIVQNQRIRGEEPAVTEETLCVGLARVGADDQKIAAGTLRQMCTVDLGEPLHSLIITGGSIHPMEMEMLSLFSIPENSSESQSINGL

Compound: Cc1cc(ccc1-c1ccccc1)C(=O)N1CCCN(CC1)C(=O)CCl [compound 10]
Experiment: probe-labelled cysteine peptide fold change vs DMSO (competition) (log2 fold change); higher = less target engagement (more negative = stronger competition)
Details: THP-1, incubation time: 4 h
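Further: competitive profiling in live THP-1 cells: cysteine peptides tagged with an iodoacetamide desthiobiotin (IA-DTB) probe, intensity after compound treatment relative to DMSO-treated cells.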

Target	probe-labelled cysteine peptide fold change (10 µM)	probe-labelled cysteine peptide fold change (50 µM)
DOCK10_Q96BY6_2164_GVDQTCTR (UniProt Q96BY6)	-0.217	-0.122
DOT1L_Q8TEK3_750_QNTPQYLASPLDQEVVPCTPSHVGRPR (UniProt Q8TEK3)	-0.0799	-0.134
DUS2_Q9NX74_430_KLAEQAAAIVCLR (UniProt Q9NX74)	-0.207	-0.328
DTWD2_Q8NBA8_220_CLSTLECAAVALSILEK (UniProt Q8NBA8)	0.149	-0.834
DOK3_Q7L591_402_ASGPPGNEHLYENLCVLEASPTLHGGEPEPHEGPGSR (UniProt Q7L591)	-0.122	-0.541
DOK1_Q99704_224_RCPSGPGTFTFQTAQGNDIFQAVETAIHR (UniProt Q99704)	-0.178	-0.282
DUS3L_Q96G46_282_TCGPLTDEDVVR (UniProt Q96G46)	-0.375	-0.156
DYNC1H1_Q14204_3693_DPTVEFPPDLCSR (UniProt Q14204)	0.1	0.324
DTYMK_P23919_117_ENFSLDWCK (UniProt P23919)	-0.175	0.0533
DUS3L_Q96G46_408_KGGGCALMNR (UniProt Q96G46)	-0.0419	-0.495
DOCK2_Q92608_1408_NAPGQYIQCFTVQPVLDEHPR (UniProt Q92608)	0.113	-0.174
DYNC1H1_Q14204_2466_CLGSLFSMLHQACR (UniProt Q14204)	0.0143	0.192
DTYMK_P23919_31_LVEALCAAGHR (UniProt P23919)	0.0566	0.228
DUSP12_Q9UNI6_23_VSCAGQMLEVQPGLYFGGAAAVAEPDHLR (UniProt Q9UNI6)	-0.456	-0.596
DOK2_O60496_132_QSRPCMEENELYSSAVTVGPHK (UniProt O60496)	-0.225	-0.254
DTD1_Q8TEA8_84_QYEILCVSQFTLQCVLK (UniProt Q8TEA8)	0.228	0.833
EAF2_Q96CJ1_98_ECILIINHDTGECR (UniProt Q96CJ1)	0.153	0.263
DYNC1H1_Q14204_2639_TFDHYCEYR (UniProt Q14204)	0.212	0.245
ECH1_Q13011_171_PVIAAVHGGCIGGGVDLVTACDIR (UniProt Q13011)	0.276	0.243
DUT_P33316_166_TDIQIALPSGCYGR (UniProt P33316)	0.11	-0.0875
DYNC1H1_Q14204_4510_NIHVCLGGLFVPEAYITATR (UniProt Q14204)	0.259	0.0837

Target	probe-labelled cysteine peptide fold change (10 µM)	probe-labelled cysteine peptide fold change (50 µM)
DUS2_Q9NX74_373_MCLLEWCR (UniProt Q9NX74)	0.0193	-0.0544
DOK3_Q7L591_295_CHSGEGLFAFSTPCAPDLCR (UniProt Q7L591)	0.104	0.0948
DOCK10_Q96BY6_2108_QFADACGQALDVNER (UniProt Q96BY6)	0.0742	0.102
DOCK11_Q5JSL3_492_VLQGNITHCAEPYIK (UniProt Q5JSL3)	-0.173	-0.0184
DOK2_O60496_110_GDWVQAICLLAFPGQR (UniProt O60496)	0.00867	-0.172
DOCK10_Q96BY6_1112_FDFLQEVCQHEHFIPLCLPIR (UniProt Q96BY6)	-0.0803	0.0418
DSN1_Q9H410_191_CFEDSNGK (UniProt Q9H410)	0.00077	0.213
DOCK2_Q92608_1117_KATIPIFFDMMLCEYQR (UniProt Q92608)	0.161	-0.102
DYNC1H1_Q14204_2594_HEALLYTWLAEHKPLVLCGPPGSGK (UniProt Q14204)	0.0486	-0.151
DOCK5_Q9H7D0_1532_ISNCVQQHAWDR (UniProt Q9H7D0)	-0.0823	-0.0364
DPYSL2_Q16555_132+133_SCCDYSLHVDISEWHK (UniProt Q16555)	0.118	-0.665
DUSP11_O75319_117_KLAPEECFSPLDLFNK (UniProt O75319)	0.111	-0.474
DYNC1H1_Q14204_1999_TSAPITCELLNK (UniProt Q14204)	-0.0531	-0.102
DSN1_Q9H410_65_GGNCDLSHQER (UniProt Q9H410)	-0.0435	-0.00352
DSTN_P60981_39_AVIFCLSADK (UniProt P60981)	-0.093	-0.0395
DOCK10_Q96BY6_1310_TDNCEK (UniProt Q96BY6)	-0.105	-0.108
DNPH1_O43598_26_PALYFCGSIR (UniProt O43598)	-0.145	0.00578
DPF2_Q92785_295_TGQPEELVSCSDCGR (UniProt Q92785)	0.289	0.491
DRG2_P55039_270_KPNSVVISCGMK (UniProt P55039)	0.122	0.181
DYNC1I2_Q13409_484_AGISEMFEGHQGPITGIHCHAAVGAVDFSHLFVTSSFDWTVK (UniProt Q13409)	0.311	0.575
EBNA1BP2_Q99848_56_QCLAEFK (UniProt Q99848)	0.241	0.121

Full records from above.
DSN1_Q9H410_65_GGNCDLSHQER (UniProt Q9H410) reads probe-labelled cysteine peptide fold change (10 µM): -0.0435; probe-labelled cysteine peptide fold change (50 µM): -0.00352
DSTN_P60981_39_AVIFCLSADK (UniProt P60981) reads probe-labelled cysteine peptide fold change (10 µM): -0.093; probe-labelled cysteine peptide fold change (50 µM): -0.0395
DUSP11_O75319_117_KLAPEECFSPLDLFNK (UniProt O75319) reads probe-labelled cysteine peptide fold change (10 µM): 0.111; probe-labelled cysteine peptide fold change (50 µM): -0.474
DOCK10_Q96BY6_1112_FDFLQEVCQHEHFIPLCLPIR (UniProt Q96BY6) reads probe-labelled cysteine peptide fold change (10 µM): -0.0803; probe-labelled cysteine peptide fold change (50 µM): 0.0418

The list continues:

Target	probe-labelled cysteine peptide fold change (10 µM)	probe-labelled cysteine peptide fold change (50 µM)
DOCK8_Q8NF50_197_GPVTACDFDLR (UniProt Q8NF50)	-0.286	-0.313
DNPEP_Q9ULA0_413_NDTPCGTTIGPILASR (UniProt Q9ULA0)	0.0819	0.497
EARS2_Q5JPH6_386_LQVLVEEAFGCQLQNR (UniProt Q5JPH6)	0.131	-0.126
DYNC1H1_Q14204_2594_PLVLCGPPGSGK (UniProt Q14204)	0.0638	-0.00442
DPYSL2_Q16555_179_FQLTDCQIYEVLSVIR (UniProt Q16555)	0.149	0.122
DTWD1_Q8N5C7_126_LLAPEFVNIYTYPCIPEYEEK (UniProt Q8N5C7)	0.162	-0.0256
DOCK10_Q96BY6_936_CHEEQLDHSVQSYIK (UniProt Q96BY6)	0.1	0.0366
DUS3L_Q96G46_315_LYLAPLTTCGNLPFR (UniProt Q96G46)	-0.259	-0.0436
DPH7_Q9BTV6_33_HLLACGTYQLR (UniProt Q9BTV6)	0.0319	0.078
DOCK8_Q8NF50_305_ISENFHCDLNSDQFK (UniProt Q8NF50)	-0.102	-0.109
DYNC1H1_Q14204_3147_EAIVNSCVFVHQTLHQANAR (UniProt Q14204)	0.0436	0.138
DPH5_Q9H2P9_161_QNGMHTLCLLDIK (UniProt Q9H2P9)	0.0814	-0.172
DOK1_Q99704_224_CPSGPGTFTFQTAQGNDIFQAVETAIHR (UniProt Q99704)	-0.0751	0.0905
DOCK11_Q5JSL3_615_NCQNITVEVEEFVPEMTK (UniProt Q5JSL3)	0.0993	0.205
DUS3L_Q96G46_358_RHQCEDIFGVQLEGAFPDTMTK (UniProt Q96G46)	-0.0881	0.0576
DUSP9_Q99956_27_LLLLDCR (UniProt Q99956)	-0.0107	-0.265
DOK1_Q99704_308_IAPCPSQDSLYSDPLDSTSAQAGEGVQR (UniProt Q99704)	-0.253	-0.0745
DOCK10_Q96BY6_2164_RGVDQTCTR (UniProt Q96BY6)	-0.271	-0.308
DPYSL2_Q16555_439_THNSSLEYNIFEGMECR (UniProt Q16555)	0.109	0.11
DUS1L_Q6P1R4_395_CDQCGNPK (UniProt Q6P1R4)	0.109	-0.0653
DSTN_P60981_147_ACIAEK (UniProt P60981)	0.0205	-0.0332

Target	probe-labelled cysteine peptide fold change (10 µM)	probe-labelled cysteine peptide fold change (50 µM)
DYNLT3_P51808_8_HCDEVGFNAEEAHNIVK (UniProt P51808)	-0.14	-0.282
DYNC1I2_Q13409_331_KTTPEYVFHCQSAVMSATFAK (UniProt Q13409)	0.023	0.221
DUSP12_Q9UNI6_115_AVLVHCHAGVSR (UniProt Q9UNI6)	-0.0273	-0.108
EAPP_Q56P03_259+262_AETDVEEIYHPVMCTECSTEVAVYDKDEVFHFFNVLASHS (UniProt Q56P03)	0.253	-0.421
DOCK5_Q9H7D0_1428_QYMQCFTVK (UniProt Q9H7D0)	0.162	0.42
DTL_Q9NZJ0_544_SSQAEACSESR (UniProt Q9NZJ0)	-0.106	-0.155
DTYMK_P23919_31_KLVEALCAAGHR (UniProt P23919)	-0.0021	-0.0218
DYNLL1_P63167_24_NADMSEEMQQDSVECATQALEK (UniProt P63167)	-0.166	0.0355
DSN1_Q9H410_65_KGGNCDLSHQER (UniProt Q9H410)	-0.0148	-0.213
DOCK8_Q8NF50_361_VLQQGEIGDCAEPYTVIK (UniProt Q8NF50)	0.0274	0.354
DOCK2_Q92608_41_IQETCGDWYR (UniProt Q92608)	-0.155	0.177
DOCK8_Q8NF50_259_QAELFALYPSVDEEDAVEIRPVPECPK (UniProt Q8NF50)	-0.0266	-0.175
DYNC1H1_Q14204_4438_QDLADVVQVCEGKK (UniProt Q14204)	0.0575	0.0503
DOCK8_Q8NF50_121_TLQPSLPEEGVELDPHVRDCVQTYIR (UniProt Q8NF50)	-0.0921	-0.301
DUT_P33316-2_3_PCSEETPAISPSK (UniProt P33316)	-0.335	-0.042
DPH5_Q9H2P9_219_GEEPAVTEETLCVGLAR (UniProt Q9H2P9)	-0.0883	0.375
EAPP_Q56P03_262_AETDVEEIYHPVMCTECSTEVAVYDKDEVFHFFNVLASHS (UniProt Q56P03)	0.00811	-0.175
DTYMK_P23919_163_CFHQLMK (UniProt P23919)	-0.135	0.888
DYNC1LI2_O43237_234_CDAVSVLEK (UniProt O43237)	0.381	-0.107
DSC2_Q02487_797_GGHQTSESCR (UniProt Q02487)	-0.0883	-0.283
